Where two headings read alike, the source gives them in different places.
Test system: CD19 CAR T cells
Experiment: CAR T cell cytokine production (Luminex) under CD19 K562, KIP-1 or CD2/3/28 stimulation
Conditions: Homo sapiens, 72 h

`C[C@@H]1CCN(C(=O)CC#N)C[C@@H]1N(C)c1ncnc2[nH]ccc12` [tofacitinib] gave an IC50 (read-out: Suppression of cytokine production, GMCSF (IC50), CD3/CD28 stimulation, 72 h) of less than 100 nM, an IC50 (read-out: Suppression of cytokine production, GMCSF (IC50), K562-CD19 stimulation, 72 h) of 2930 nM and an IC50 (read-out: Suppression of cytokine production, GMCSF (IC50), KIP-1 stimulation, 72 h) of 1160 nM. For the same molecule, the IC50 (read-out: Suppression of cytokine production, GzB (IC50), CD3/CD28 stimulation, 72 h) was 1700 nM, the IC50 (read-out: Suppression of cytokine production, IL-2Ra (IC50), CD3/CD28 stimulation, 72 h) was 222 nM and the IC50 (read-out: Suppression of cytokine production, IL-2Ra (IC50), K562-CD19 stimulation, 72 h) was 155 nM. It also gave an IC50 (read-out: Suppression of cytokine production, IL-6 (IC50), CD3/CD28 stimulation, 72 h) of less than 100 nM, an IC50 (read-out: Suppression of cytokine production, IL-6 (IC50), KIP-1 stimulation, 72 h) of 2250 nM and an IC50 (read-out: Suppression of cytokine production, IL-8 (IC50), CD3/CD28 stimulation, 72 h) of less than 100 nM. For the same molecule, the IC50 (read-out: Suppression of cytokine production, IL-8 (IC50), K562-CD19 stimulation, 72 h) was 105 nM, the IC50 (read-out: Suppression of cytokine production, IL-8 (IC50), KIP-1 stimulation, 72 h) was 354 nM and the IC50 (read-out: Suppression of cytokine production, IL-10 (IC50), CD3/CD28 stimulation, 72 h) was less than 100 nM. It also gave an IC50 (read-out: Suppression of cytokine production, IL-10 (IC50), K562-CD19 stimulation, 72 h) of 221 nM, an IC50 (read-out: Suppression of cytokine production, MCP-1 (IC50), CD3/CD28 stimulation, 72 h) of less than 100 nM and an IC50 (read-out: Suppression of cytokine production, MCP-1 (IC50), KIP-1 stimulation, 72 h) of 2560 nM. For the same molecule, the IC50 (read-out: Suppression of cytokine production, MIG (IC50), CD3/CD28 stimulation, 72 h) was 307 nM, the IC50 (read-out: Suppression of cytokine production, MIG (IC50), K562-CD19 stimulation, 72 h) was less than 100 nM and the IC50 (read-out: Suppression of cytokine production, MIG (IC50), KIP-1 stimulation, 72 h) was less than 100 nM. The IC50 (read-out: Suppression of cytokine production, MIP-1b (IC50), CD3/CD28 stimulation, 72 h) was 101 nM, the IC50 (read-out: Suppression of cytokine production, Perforin (IC50), K562-CD19 stimulation, 72 h) was 460 nM and the IC50 (read-out: Suppression of cytokine production, Perforin (IC50), KIP-1 stimulation, 72 h) was 1090 nM. The IC50 (read-out: Suppression of cytokine production, TNFa (IC50), CD3/CD28 stimulation, 72 h) was less than 100 nM, the IC50 (read-out: Suppression of cytokine production, TNFa (IC50), K562-CD19 stimulation, 72 h) was 371 nM and the IC50 (read-out: Suppression of cytokine production, TNFa (IC50), KIP-1 stimulation, 72 h) was 652 nM.
